# Library screen at single concentrations

Sequences of proteins named here, by UniProt entry; tags and fusion partners are left off.
UniProt P9WPC5, whole entry: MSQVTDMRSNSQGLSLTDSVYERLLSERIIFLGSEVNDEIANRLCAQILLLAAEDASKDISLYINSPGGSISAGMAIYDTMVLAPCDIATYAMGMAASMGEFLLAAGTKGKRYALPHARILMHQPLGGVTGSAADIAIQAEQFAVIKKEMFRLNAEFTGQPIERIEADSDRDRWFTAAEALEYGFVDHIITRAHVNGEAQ
UniProt P9WPC3, whole entry partner: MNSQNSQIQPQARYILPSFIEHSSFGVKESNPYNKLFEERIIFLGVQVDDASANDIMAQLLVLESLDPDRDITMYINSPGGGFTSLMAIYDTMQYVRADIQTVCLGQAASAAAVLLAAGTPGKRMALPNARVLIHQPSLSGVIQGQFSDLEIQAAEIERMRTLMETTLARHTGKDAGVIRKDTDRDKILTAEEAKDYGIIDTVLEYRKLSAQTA
UniProt P9WFT3, whole entry: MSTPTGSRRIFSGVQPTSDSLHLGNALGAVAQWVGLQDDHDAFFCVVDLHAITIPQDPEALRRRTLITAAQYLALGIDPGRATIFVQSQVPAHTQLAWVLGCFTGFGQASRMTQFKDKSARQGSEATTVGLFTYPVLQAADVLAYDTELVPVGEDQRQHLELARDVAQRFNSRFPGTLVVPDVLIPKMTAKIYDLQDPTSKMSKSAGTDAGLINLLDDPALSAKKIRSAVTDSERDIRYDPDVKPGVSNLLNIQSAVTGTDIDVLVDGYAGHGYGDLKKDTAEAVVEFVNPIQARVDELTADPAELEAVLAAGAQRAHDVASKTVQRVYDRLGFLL

From ChEMBL document CHEMBL3988442, “University of Dundee, Small-Polar-MMV Screening Library” (2021).

ClpP1P2: 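ClpP1P2, Mycobacterium tuberculosis (UniProt P9WPC5 and UniProt P9WPC3). Protease assay of ClpP1P2, read by the AMC dye that it sets free. Tested at 50 µM. Higher reads as stronger inhibition, judged from the few compounds that gave an IC50. Most other retested compounds had strongly negative values. Size under these conditions: about 69,000 compounds, about 10 of them at 50% or above in at least one test.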
MtTrpRS: 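Tryptophan-tRNA ligase, Mycobacterium tuberculosis (UniProt P9WFT3). Enzyme assay of tryptophanyl-tRNA synthetase; the read-out is not stated. Tested at 10 µM. Higher most likely means stronger inhibition; the record gives no direction and few retests gave an IC50. Of about 65,000 compounds tested this way, about 64 (0.098%) reached 50% or more in at least one test.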

The filed quantity is “Percent Effect” (%). How 0% and 100% were set is not recorded. Most values in the screen are low, and negative values occur. The compounds are a random part of those screened.

{"compound": "CC(C)n1cc(CN2CCCN(C(=O)c3cccn3C)CC2)cn1", "ClpP1P2": -13.94, "MtTrpRS": -2.741}
{"compound": "COCc1n[nH]c2c1CN(C(=O)c1ccncc1)C2", "ClpP1P2": 0.1111, "MtTrpRS": 0.1079}
{"compound": "Cc1nc(CC(=O)N2CCCN(c3ccc(C#N)cc3)CC2)cs1", "ClpP1P2": -14.27, "MtTrpRS": -2.86}
{"compound": "CC(C(=O)Nc1ccc(C#N)cc1)N1CCc2ccccc21", "stereo": "stereo not drawn", "ClpP1P2": 1.479, "MtTrpRS": 0.000007}
{"compound": "CC(C)=CCN1CCN(C(=O)COc2ccccc2)[C@H]2CS(=O)(=O)C[C@H]21", "ClpP1P2": 5.056, "MtTrpRS": -4.527}
{"compound": "CCc1nnsc1C(=O)NCCC1CN(C(C)C)CCO1", "stereo": "stereo not drawn", "ClpP1P2": -0.6776, "MtTrpRS": -1.176}
{"compound": "Cc1ccn(CCC(=O)NCCc2ccco2)n1", "ClpP1P2": -16.66, "MtTrpRS": -2.545}
{"compound": "Cc1ccc(C(=O)N2CCO[C@H]3[C@H](OCCN(C)C)CC[C@@H]32)o1", "ClpP1P2": -2.145, "MtTrpRS": -4.204}
{"compound": "CC(C)CCC(=O)N(C)CC(=O)Nc1ccc(Br)cn1", "ClpP1P2": -15.7, "MtTrpRS": -6.853}
{"compound": "CCCS(=O)(=O)CC(=O)N1CCCC1c1noc(C2CC2)n1", "stereo": "stereo not drawn", "ClpP1P2": -6.173, "MtTrpRS": 4.045}
{"compound": "Cc1cc(=O)[nH]c(=O)n1Cc1ncc(-c2ccccc2C(=O)O)s1", "ClpP1P2": 11.23, "MtTrpRS": -7.091}
{"compound": "O=S(=O)(CC1CCCO1)Nc1cc(Cl)ccc1-n1cccn1", "stereo": "stereo not drawn", "ClpP1P2": 1.51, "MtTrpRS": 0.7597}
{"compound": "CC(=O)N(C)c1nc(CN2CCOC(Cn3cccn3)C2)cs1", "stereo": "stereo not drawn", "ClpP1P2": -11.71, "MtTrpRS": 1.006}
{"compound": "O=C(CNC1(c2ccc(Cl)cc2)CCOCC1)NC1CCCC1", "ClpP1P2": -15.21, "MtTrpRS": -3.351}
{"compound": "CCc1nc(CN(C)C(=O)c2ccc(OCCCOC)nc2)cs1", "ClpP1P2": -3.447, "MtTrpRS": -0.5069}

The first 2 entries again:

Compound,ClpP1P2,MtTrpRS
CC(C)n1cc(CN2CCCN(C(=O)c3cccn3C)CC2)cn1,-13.94,-2.741
COCc1n[nH]c2c1CN(C(=O)c1ccncc1)C2,0.1111,0.1079